Laboratory results as given in PubChem BioAssay AID248 (DTP/NCI, 2004).
The list shows only some results of the screen, not a fair sample: it gathers tests that were run many times, whatever their T/C, doses with no T/C, and many T/C values between a quarter and a half above the control. Further doses and runs are listed elsewhere. T/C is the treated group as % of the vehicle group. Some doses have a count of surviving animals in place of a T/C: the source holds a T/C of zero for them, seemingly a mark for toxic or unscored doses. Some doses without a T/C left all or most animals alive at the check, yet need not have been tolerated: survival well below the control is almost never listed, so the zero probably covers shortened survival too. Counts of survivors are from the toxicity check (mostly the fifth day) where no day follows; animals may have died later. Schedule codes are those of the source, read here as Q, the interval in days (D) or hours (H), X, the number of doses. Some schedules carry Z or #; the key to these is not given. Some entries hold several experiments; the results are listed from low to high. Where survival is the endpoint, the PubChem record calls one and a half times the control and up active, and a quarter to a half above the control has no call in these data; cut-offs in other NCI protocols can differ.

Test system: L1210 leukemia ip in BDF1 mice, survival T/C
Assay: NCI In Vivo Anticancer Drug Screen. Data for tumor model L1210 Leukemia (intraperitoneal) in B6D2F1 (BDF1) mice
Conditions: T/C endpoint: mean survival time, higher T/C = longer survival
[1] = dose: 100.0 mg/kg/injection, schedule: Q01DX001 (ip), vehicle: saline
[2] = dose: 400.0 mg/kg/injection, schedule: Q01DX001 (ip), vehicle: saline
[3] = dose: 400.0 mg/kg/injection, schedule: Q04DX003 (ip), vehicle: Klucel (hydroxypropylcellulose) (HPC)
[4] = dose: 400.0 mg/kg/injection, schedule: Q04DX002 (ip), vehicle: saline
[5] = dose: 400.0 mg/kg/injection, schedule: Q04DX003 (ip), vehicle: saline with Tween-80
[6] = dose: 400.0 mg/kg/injection, schedule: Q04DX002 (ip), vehicle: Klucel (hydroxypropylcellulose) (HPC)

SMILES: Cc1ccc(S(=O)(=O)NC(=O)N(CCCl)N=O)cc1
- T/C (dose: 20.0 mg/kg/injection, schedule: Q01DX001 (ip), vehicle: other): 144 % of control
- survivor count (dose: 250.0 mg/kg/injection, schedule: Q01DX001 (ip), vehicle: other): 6 of 6
- survivor count (dose: 375.0 mg/kg/injection, schedule: Q01DX001 (ip), vehicle: other): 2 of 6
- survivor count (dose: 500.0 mg/kg/injection, schedule: Q01DX001 (ip), vehicle: other): 0 of 6
- survivor count (dose: 750.0 mg/kg/injection, schedule: Q01DX001 (ip), vehicle: other): 0 of 6
- survivor count (dose: 1000.0 mg/kg/injection, schedule: Q01DX001 (ip), vehicle: other): 0 of 6

SMILES: CC/C(Cc1ccc(O)cc1)=N\N=C(N)N
- survivor count (dose: 120.0 mg/kg/injection, schedule: Q01DX Z (ip), vehicle: methylcellulose (MC)): 3 of 6
- survivor count (dose: 120.0 mg/kg/injection, schedule: Q01DX Z (oral), vehicle: methylcellulose (MC)): 4 of 6
- survivor count (dose: 375.0 mg/kg/injection, schedule: Q01DX Z (oral), vehicle: methylcellulose (MC)): 4 of 7
- survivor count (dose: 500.0 mg/kg/injection, schedule: Q01DX Z (oral), vehicle: methylcellulose (MC)): 5 of 7
- survivor count (dose: 625.0 mg/kg/injection, schedule: Q01DX Z (oral), vehicle: methylcellulose (MC)): 4 of 7

SMILES: CC1CC2=C(CCCO2)C(C)C1 (centres undefined)
- survivor count [1]: 4 of 4
- survivor count [2]: 4 of 4

SMILES: CCCNCCCCCCNCCC
- survivor count (dose: 200.0 mg/kg/injection, schedule: Q04DX003 (ip), vehicle: saline): 6 of 6
- survivor count (dose: 400.0 mg/kg/injection, schedule: Q04DX003 (ip), vehicle: saline): 6 of 6

SMILES: O=Nc1ccc(O)cc1Cl
- survivor count (dose: 200.0 mg/kg/injection, schedule: Q01DX001 (ip), vehicle: Klucel (hydroxypropylcellulose) (HPC)): 3 of 3

SMILES: Cc1cccc[n+]1CC(=O)c1ccc(-c2ccc(C(=O)C[n+]3ccccc3C)cc2)cc1
- survivor count (dose: 12.5 mg/kg/injection, schedule: Q04DX003 (ip), vehicle: Klucel (hydroxypropylcellulose) (HPC)): 0 of 6
- survivor count (dose: 25.0 mg/kg/injection, schedule: Q04DX003 (ip), vehicle: Klucel (hydroxypropylcellulose) (HPC)): 0 of 6
- survivor count (dose: 50.0 mg/kg/injection, schedule: Q04DX003 (ip), vehicle: Klucel (hydroxypropylcellulose) (HPC)): 0 of 6
- survivor count (dose: 100.0 mg/kg/injection, schedule: Q04DX003 (ip), vehicle: Klucel (hydroxypropylcellulose) (HPC)): 0 of 6
- survivor count (dose: 200.0 mg/kg/injection, schedule: Q04DX003 (ip), vehicle: Klucel (hydroxypropylcellulose) (HPC)): 0 of 6
- survivor count [3]: 0 of 6

SMILES: Cc1ccc(N=Cc2ccc([N+](=O)[O-])s2)cc1Cl
- survivor count [3]: 6 of 6

SMILES: Cn1ncc2c(N)ncnc21
- survivor count (dose: 100.0 mg/kg/injection, schedule: Q01DX009 (ip), vehicle: Klucel (hydroxypropylcellulose) (HPC)): 4 of 6

SMILES: Clc1ccc([O][Sn]([c]2ccccc2)([c]2ccccc2)[c]2ccccc2)c(-c2ccccc2)c1
- survivor count (dose: 20.0 mg/kg/injection, schedule: Q01DX001 (ip), vehicle: saline): 3 of 6
- survivor count (dose: 40.0 mg/kg/injection, schedule: Q01DX001 (ip), vehicle: saline): 1 of 6
- survivor count (dose: 80.0 mg/kg/injection, schedule: Q01DX001 (ip), vehicle: saline): 0 of 6

SMILES: CCOP(=O)(OCC)ON=C(Cl)Cl
- survivor count (dose: 6.25 mg/kg/injection, schedule: Q04DX002 (ip), vehicle: saline): 3 of 3
- survivor count (dose: 10.0 mg/kg/injection, schedule: Q01DX009 (ip), vehicle: Klucel (hydroxypropylcellulose) (HPC)): 6 of 6
- survivor count (dose: 12.5 mg/kg/injection, schedule: Q04DX002 (ip), vehicle: saline): 0 of 3 and 3 of 3
- survivor count (dose: 25.0 mg/kg/injection, schedule: Q04DX002 (ip), vehicle: saline): 1 of 3
- survivor count (dose: 50.0 mg/kg/injection, schedule: Q04DX002 (ip), vehicle: saline): 0 of 3
- survivor count (dose: 100.0 mg/kg/injection, schedule: Q04DX002 (ip), vehicle: saline): 0 of 3
- survivor count (dose: 200.0 mg/kg/injection, schedule: Q04DX002 (ip), vehicle: saline): 0 of 3
- survivor count [4]: 1 of 3

SMILES: OC1c2ccccc2-c2ccc(N(Cc3ccccc3)Cc3ccccc3)cc21 (centres undefined)
- survivor count (dose: 100.0 mg/kg/injection, schedule: Q04DX003 (ip), vehicle: saline with Tween-80): 6 of 6
- survivor count [5]: 6 of 6

SMILES: C=C(C)C(=O)Nc1c(C)cccc1C
- survivor count [3]: 6 of 6

SMILES: O=C(CCNc1ccccc1)c1ccccc1
- survivor count (dose: 200.0 mg/kg/injection, schedule: Q01DX009 (ip), vehicle: saline): 0 of 3
- survivor count [4]: 0 of 3

SMILES: O=C(O)/C=C/c1ccc([N+](=O)[O-])s1
- survivor count [6]: 0 of 3

SMILES: CN(CCCCN(C)CCOS(C)(=O)=O)CCOS(C)(=O)=O
- T/C (dose: 0.4 mg/kg/injection, schedule: Q01DX015 (ip), vehicle: saline): 127 % of control
- T/C (dose: 0.8 mg/kg/injection, schedule: Q01DX015 (ip), vehicle: saline): 140 % of control
- T/C (dose: 1.7 mg/kg/injection, schedule: Q01DX015 (ip), vehicle: saline): 149 % of control
- T/C (dose: 2.6 mg/kg/injection, schedule: Q01DX015 (ip), vehicle: saline): 149 % of control
- T/C (dose: 4.0 mg/kg/injection, schedule: Q01DX015 (ip), vehicle: saline): 142 % of control
- T/C (dose: 5.5 mg/kg/injection, schedule: Q01DX001 (ip), vehicle: saline): 134 % of control
- survivor count (dose: 6.0 mg/kg/injection, schedule: Q01DX015 (ip), vehicle: saline): 6 of 6
- T/C (dose: 12.5 mg/kg/injection, schedule: Q01DX001 (ip), vehicle: saline): 142 % of control
- survivor count (dose: 50.0 mg/kg/injection, schedule: Q01DX001 (ip), vehicle: saline): 1 of 4
- survivor count [1]: 0 of 4
- survivor count (dose: 200.0 mg/kg/injection, schedule: Q01DX001 (ip), vehicle: saline): 0 of 4
- survivor count [2]: 0 of 4

SMILES: CN1CCCCC1c1cccnc1 (centres undefined)
- survivor count (dose: 75.0 mg/kg/injection, schedule: Q01DX001 (ip), vehicle: saline): 0 of 6
- survivor count (dose: 150.0 mg/kg/injection, schedule: Q01DX001 (ip), vehicle: saline): 0 of 6
- survivor count (dose: 300.0 mg/kg/injection, schedule: Q01DX001 (ip), vehicle: saline): 0 of 6

SMILES: CCCCCCCCCC(=O)N(CCC)CCC
- survivor count [5]: 3 of 3

SMILES: CCN=C(c1ccc(NC(=O)c2ccc(C(=O)Nc3ccc(C(=NCC)N(CC)C(=O)Nc4ccc(OC)cc4)cc3)cc2)cc1)N(CC)C(=O)Nc1ccc(OC)cc1
- T/C (dose: 9.0 mg/kg/injection, schedule: Q01DX015 (ip), vehicle: methylcellulose (MC)): 134 % of control
- T/C (dose: 18.0 mg/kg/injection, schedule: Q01DX015 (ip), vehicle: methylcellulose (MC)): 141 % of control
- survivor count (dose: 25.0 mg/kg/injection, schedule: Q01DX015 (ip), vehicle: methylcellulose (MC)): 1 of 6
- survivor count (dose: 50.0 mg/kg/injection, schedule: Q01DX015 (ip), vehicle: methylcellulose (MC)): 0 of 6
- survivor count (dose: 100.0 mg/kg/injection, schedule: Q01DX015 (ip), vehicle: methylcellulose (MC)): 0 of 6
- survivor count (dose: 200.0 mg/kg/injection, schedule: Q01DX015 (ip), vehicle: methylcellulose (MC)): 0 of 6
- survivor count (dose: 400.0 mg/kg/injection, schedule: Q01DX015 (ip), vehicle: methylcellulose (MC)): 0 of 6

SMILES: CS(=O)c1nsc(S(C)=O)c1C#N (centres undefined)
- survivor count (dose: 25.0 mg/kg/injection, schedule: Q04DX002 (ip), vehicle: Klucel (hydroxypropylcellulose) (HPC)): 0 of 3
- survivor count (dose: 50.0 mg/kg/injection, schedule: Q04DX002 (ip), vehicle: Klucel (hydroxypropylcellulose) (HPC)): 0 of 3
- survivor count (dose: 100.0 mg/kg/injection, schedule: Q04DX002 (ip), vehicle: Klucel (hydroxypropylcellulose) (HPC)): 0 of 3
- survivor count (dose: 200.0 mg/kg/injection, schedule: Q04DX002 (ip), vehicle: Klucel (hydroxypropylcellulose) (HPC)): 0 of 3
- survivor count [6]: 0 of 3
